Data source: PubChem BioAssay AID1259425 (University of Nebraska Medical Center, 2018)
The whole screen tested about 14,000 reagents; this is an unselected part. Not all columns of the deposit are shown. Not stated in the record: the time to read-out.

- Purpose: 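Find knockdowns that reproduce the gene expression pattern seen when KSR1 is lost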 (primary screen)
- System: HCT116 human colon cancer cells
- Reagent: siRNA pool against human genes, 50 nM siRNA
- Detection: 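After 50 nM siRNA pool, branched-DNA assay measures six marker transcripts per well, minus blank, normalised to the geometric mean of two housekeeping transcripts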
- Scale: BNIP3L mRNA: higher = more BNIP3L transcript after knockdown; NDRG1 mRNA: higher = more NDRG1 transcript after knockdown

no.	Target gene	BNIP3L mRNA, set 1	NDRG1 mRNA, set 1
1	SLC31A1	0.0949	0.554
2	LINC00626	0.246	0.19
3	HSPA4	0.0903	0.086
4	MNT	0.0542	0.108
5	PLPPR3	0.0631	0.154
6	RRP8	0.138	0.127
7	SAP130	0.207	0.312
8	MED18	0.125	0.0884
9	ABCD1	0.122	0.279
10	CYB5R4	0.09	0.537
11	NIT1	0.102	0.137
12	CCT6B	0.151	0.124
13	PYGM	0.0688	0.106
14	TSSK3	0.0795	0.064
15	RNF130	0.068	0.179
16	RABEP2	0.124	0.231
17	PMP22	0.0897	0.23
18	ARHGAP21	0.057	0.0783
19	DPYS	0.17	0.249
20	MAP10	0.0829	0.199
21	CDK4	0.0715	0.184
22	PLEK2	0.102	0.207
23	USP42	0.0558	0.127
24	ARHGAP20	0.194	0.953
25	GAS1	0.179	0.255
26	DISP1	0.285	0.936
27	JARID2	0.13	0.0369
28	CNTRL	0.094	0.163
29	VOPP1	0.0669	0.335
30	PTPRA	0.04	0.584
31	GOSR1	0.129	0.088
32	SERBP1	0.0844	0.243
33	MYNN	0.111	0.187
34	PLA2G3	0.14	0.0561
35	RPP38	0.102	0.249
36	RPS6KA5	0.116	0.168
37	ITSN1	0.0508	0.0357
38	B4GALT5	0.214	0.464
39	ITGAX	0.0619	0.0988
40	SMC2	0.13	0.355
41	WNT11	0.0889	0.107
42	STAT5A	0.0849	0.253
43	SLAMF8	0.0649	0.115
44	NLRC5	0.161	0.178
45	PYROXD1	0.0901	0.135
46	SHOC2	0.0829	0.107
47	ALOX15B	0.0695	0.042
48	UBE2L3	0.0736	0.268
49	STXBP1	0.135	0.221
50	B3GALNT1	0.0937	0.131

4 successive reagents already listed:
no.	Target gene	BNIP3L mRNA, set 1	NDRG1 mRNA, set 1
43	SLAMF8	0.0649	0.115
44	NLRC5	0.161	0.178
45	PYROXD1	0.0901	0.135
46	SHOC2	0.0829	0.107
